The other results are listed elsewhere or left out.
How the values were obtained:
Test in all cases: log2 fold change, soluble protein after heating vs DMSO (PISA); higher = thermal stabilisation; K562 lysate, 10 uM; active = over 0.2 and 3.5 SD of the protein, either way, in both replicates (recomputed)
[1] = compound: Cc1cn(-c2cc(NC(=O)c3ccc(C)c(Nc4nccc(-c5cccnc5)n4)c3)cc(C(F)(F)F)c2)cn1 [nilotinib]
Method in brief: (§1)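 A 30 min treatment with 10 μM compound was applied to crude K562 extract at 1 mg/mL protein in PBS pH 7.4 with 1 mM MgCl2. Heating for 3 min spanned 48°C-58°C, after which aliquots were pooled, adjusted to 0.5% NP-40 at 4°C and spun at 21,000xg for 90 min. TMTpro 16plex LC-MS/MS of the supernatant, with channel sums equalised, gave values recorded as log-two fold change in thermal stability against solvent controls, from duplicates.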

By UniProt entry, the sequences of proteins in these tests, tags left out. Where a name states a change or a piece, a line headed by the entry shows the natural chain unless it says otherwise.
UniProt Q96FN4: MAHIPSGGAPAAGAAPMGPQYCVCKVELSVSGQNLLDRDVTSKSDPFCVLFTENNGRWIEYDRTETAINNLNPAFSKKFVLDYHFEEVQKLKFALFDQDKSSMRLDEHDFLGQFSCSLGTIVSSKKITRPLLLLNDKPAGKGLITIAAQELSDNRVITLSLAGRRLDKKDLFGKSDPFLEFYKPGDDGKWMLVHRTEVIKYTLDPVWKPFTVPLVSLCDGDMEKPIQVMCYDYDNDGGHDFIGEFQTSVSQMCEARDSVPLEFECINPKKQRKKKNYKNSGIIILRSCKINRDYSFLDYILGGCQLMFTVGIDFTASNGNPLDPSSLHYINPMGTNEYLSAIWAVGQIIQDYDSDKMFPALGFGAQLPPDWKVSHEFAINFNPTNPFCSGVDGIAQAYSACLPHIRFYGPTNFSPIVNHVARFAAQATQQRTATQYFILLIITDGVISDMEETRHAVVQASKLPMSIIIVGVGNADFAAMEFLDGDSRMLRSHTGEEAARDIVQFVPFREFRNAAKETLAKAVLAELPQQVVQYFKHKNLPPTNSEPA
UniProt Q7Z4G1, whole entry, looked up: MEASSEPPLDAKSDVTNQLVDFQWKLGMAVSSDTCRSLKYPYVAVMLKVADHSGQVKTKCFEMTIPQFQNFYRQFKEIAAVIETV
UniProt Q8WXC6: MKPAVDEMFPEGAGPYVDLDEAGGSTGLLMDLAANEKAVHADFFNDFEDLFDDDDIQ
UniProt Q9BU20: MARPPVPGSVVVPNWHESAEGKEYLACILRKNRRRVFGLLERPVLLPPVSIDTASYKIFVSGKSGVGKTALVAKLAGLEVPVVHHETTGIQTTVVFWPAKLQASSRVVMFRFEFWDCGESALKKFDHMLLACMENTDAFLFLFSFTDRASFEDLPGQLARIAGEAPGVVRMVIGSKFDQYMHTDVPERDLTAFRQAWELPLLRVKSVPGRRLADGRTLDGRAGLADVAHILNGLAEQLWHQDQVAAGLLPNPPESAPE
UniProt Q6QEF8, whole entry, looked up: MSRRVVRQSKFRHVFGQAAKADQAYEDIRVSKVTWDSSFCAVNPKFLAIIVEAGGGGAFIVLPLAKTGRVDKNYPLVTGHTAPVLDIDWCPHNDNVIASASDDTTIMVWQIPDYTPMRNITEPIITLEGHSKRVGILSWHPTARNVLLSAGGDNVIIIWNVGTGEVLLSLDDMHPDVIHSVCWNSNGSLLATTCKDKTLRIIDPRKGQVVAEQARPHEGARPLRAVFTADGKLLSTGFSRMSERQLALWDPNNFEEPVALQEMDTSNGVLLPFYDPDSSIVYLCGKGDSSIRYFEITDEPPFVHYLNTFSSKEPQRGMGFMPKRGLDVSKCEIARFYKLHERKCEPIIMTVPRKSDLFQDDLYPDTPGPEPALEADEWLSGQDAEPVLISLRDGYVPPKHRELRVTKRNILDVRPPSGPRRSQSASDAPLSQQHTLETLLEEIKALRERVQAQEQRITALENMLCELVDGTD
UniProt Q8IWV2: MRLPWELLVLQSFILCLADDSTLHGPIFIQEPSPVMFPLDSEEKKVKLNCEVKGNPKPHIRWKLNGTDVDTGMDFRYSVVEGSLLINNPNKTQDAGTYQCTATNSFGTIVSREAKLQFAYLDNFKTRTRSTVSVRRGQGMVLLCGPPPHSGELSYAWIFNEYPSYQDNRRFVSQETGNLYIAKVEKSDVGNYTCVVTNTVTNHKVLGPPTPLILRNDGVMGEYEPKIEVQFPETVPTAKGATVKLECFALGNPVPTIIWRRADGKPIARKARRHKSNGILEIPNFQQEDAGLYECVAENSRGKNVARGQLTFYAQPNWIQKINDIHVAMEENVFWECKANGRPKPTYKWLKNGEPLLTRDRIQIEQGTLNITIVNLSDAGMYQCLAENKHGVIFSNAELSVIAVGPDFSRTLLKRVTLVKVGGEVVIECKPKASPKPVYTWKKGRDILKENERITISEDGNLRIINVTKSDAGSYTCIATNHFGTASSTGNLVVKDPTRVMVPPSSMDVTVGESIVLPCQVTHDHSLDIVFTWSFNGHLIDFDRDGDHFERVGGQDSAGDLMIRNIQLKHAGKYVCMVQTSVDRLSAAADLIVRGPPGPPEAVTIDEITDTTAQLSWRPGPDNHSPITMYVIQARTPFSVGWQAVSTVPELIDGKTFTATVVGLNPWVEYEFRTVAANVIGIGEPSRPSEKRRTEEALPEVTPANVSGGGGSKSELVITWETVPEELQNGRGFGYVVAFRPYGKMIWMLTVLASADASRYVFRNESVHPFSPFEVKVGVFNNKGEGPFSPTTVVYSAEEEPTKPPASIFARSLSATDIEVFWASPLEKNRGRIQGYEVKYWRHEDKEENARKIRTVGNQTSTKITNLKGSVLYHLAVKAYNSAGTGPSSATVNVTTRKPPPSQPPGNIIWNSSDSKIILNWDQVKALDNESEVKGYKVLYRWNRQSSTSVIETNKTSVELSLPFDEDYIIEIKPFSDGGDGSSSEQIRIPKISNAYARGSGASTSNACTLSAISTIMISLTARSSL
UniProt Q96I36: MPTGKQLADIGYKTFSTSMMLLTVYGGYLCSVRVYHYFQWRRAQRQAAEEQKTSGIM
UniProt Q8N137: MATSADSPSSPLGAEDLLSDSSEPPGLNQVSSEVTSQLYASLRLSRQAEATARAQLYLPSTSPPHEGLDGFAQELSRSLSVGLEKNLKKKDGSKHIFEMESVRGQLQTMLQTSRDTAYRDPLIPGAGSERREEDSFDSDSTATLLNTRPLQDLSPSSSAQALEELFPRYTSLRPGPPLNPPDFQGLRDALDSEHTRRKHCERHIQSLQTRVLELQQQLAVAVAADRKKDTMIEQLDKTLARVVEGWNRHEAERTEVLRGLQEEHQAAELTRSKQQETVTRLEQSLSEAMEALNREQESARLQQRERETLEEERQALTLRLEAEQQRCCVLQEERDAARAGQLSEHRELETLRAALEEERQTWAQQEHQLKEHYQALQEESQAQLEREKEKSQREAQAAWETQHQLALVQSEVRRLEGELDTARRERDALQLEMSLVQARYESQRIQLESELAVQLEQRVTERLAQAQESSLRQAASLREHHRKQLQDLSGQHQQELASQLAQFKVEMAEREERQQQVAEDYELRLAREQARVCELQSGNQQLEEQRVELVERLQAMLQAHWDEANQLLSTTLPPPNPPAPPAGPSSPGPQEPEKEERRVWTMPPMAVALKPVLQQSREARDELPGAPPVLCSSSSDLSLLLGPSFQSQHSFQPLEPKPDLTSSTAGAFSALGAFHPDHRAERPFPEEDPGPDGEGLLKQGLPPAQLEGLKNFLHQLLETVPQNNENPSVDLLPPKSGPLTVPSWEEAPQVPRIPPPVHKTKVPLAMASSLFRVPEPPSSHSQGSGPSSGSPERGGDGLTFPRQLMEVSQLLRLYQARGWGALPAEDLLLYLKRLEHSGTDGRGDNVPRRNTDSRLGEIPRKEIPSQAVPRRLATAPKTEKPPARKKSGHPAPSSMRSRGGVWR
UniProt O14810: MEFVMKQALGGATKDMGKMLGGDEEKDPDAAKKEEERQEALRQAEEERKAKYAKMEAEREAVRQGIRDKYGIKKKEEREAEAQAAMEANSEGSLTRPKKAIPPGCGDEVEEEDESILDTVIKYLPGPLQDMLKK
UniProt G9CGD6: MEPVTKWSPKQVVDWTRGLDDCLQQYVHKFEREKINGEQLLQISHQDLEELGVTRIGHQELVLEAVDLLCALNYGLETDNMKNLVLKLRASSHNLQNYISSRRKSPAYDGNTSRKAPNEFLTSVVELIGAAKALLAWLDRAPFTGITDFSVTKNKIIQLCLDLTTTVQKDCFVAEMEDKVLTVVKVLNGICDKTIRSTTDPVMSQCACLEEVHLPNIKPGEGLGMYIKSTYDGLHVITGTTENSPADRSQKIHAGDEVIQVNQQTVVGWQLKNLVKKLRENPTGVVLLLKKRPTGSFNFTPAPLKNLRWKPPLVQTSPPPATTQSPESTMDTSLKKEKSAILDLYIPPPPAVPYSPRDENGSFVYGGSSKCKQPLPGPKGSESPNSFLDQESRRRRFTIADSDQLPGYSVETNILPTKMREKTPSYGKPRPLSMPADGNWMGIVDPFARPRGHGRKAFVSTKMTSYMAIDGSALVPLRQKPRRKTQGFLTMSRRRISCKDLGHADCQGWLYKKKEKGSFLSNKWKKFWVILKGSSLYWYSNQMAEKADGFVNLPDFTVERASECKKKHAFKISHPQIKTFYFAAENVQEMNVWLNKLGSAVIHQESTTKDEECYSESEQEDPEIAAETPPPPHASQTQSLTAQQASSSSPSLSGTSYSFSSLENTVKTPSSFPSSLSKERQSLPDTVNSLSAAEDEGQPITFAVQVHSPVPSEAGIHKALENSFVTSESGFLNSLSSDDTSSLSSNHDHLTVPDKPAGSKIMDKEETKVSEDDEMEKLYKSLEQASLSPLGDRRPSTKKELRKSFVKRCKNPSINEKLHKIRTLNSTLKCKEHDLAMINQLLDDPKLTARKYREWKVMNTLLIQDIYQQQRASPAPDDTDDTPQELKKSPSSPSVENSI
UniProt Q9NZJ6: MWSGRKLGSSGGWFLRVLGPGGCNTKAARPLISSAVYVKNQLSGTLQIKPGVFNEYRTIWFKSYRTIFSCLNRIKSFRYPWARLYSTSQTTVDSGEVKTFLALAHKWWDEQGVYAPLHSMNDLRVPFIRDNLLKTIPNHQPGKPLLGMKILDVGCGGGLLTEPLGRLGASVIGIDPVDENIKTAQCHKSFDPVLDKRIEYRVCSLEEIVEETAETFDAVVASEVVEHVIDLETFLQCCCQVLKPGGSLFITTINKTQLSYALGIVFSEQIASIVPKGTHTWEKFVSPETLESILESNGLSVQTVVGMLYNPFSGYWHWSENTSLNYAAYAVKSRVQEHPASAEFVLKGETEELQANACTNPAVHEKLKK
UniProt Q86WW8: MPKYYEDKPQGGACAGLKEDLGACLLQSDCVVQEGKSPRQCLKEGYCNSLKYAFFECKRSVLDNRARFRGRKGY
UniProt Q14061: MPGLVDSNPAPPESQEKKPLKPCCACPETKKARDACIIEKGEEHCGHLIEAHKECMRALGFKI
UniProt O95628: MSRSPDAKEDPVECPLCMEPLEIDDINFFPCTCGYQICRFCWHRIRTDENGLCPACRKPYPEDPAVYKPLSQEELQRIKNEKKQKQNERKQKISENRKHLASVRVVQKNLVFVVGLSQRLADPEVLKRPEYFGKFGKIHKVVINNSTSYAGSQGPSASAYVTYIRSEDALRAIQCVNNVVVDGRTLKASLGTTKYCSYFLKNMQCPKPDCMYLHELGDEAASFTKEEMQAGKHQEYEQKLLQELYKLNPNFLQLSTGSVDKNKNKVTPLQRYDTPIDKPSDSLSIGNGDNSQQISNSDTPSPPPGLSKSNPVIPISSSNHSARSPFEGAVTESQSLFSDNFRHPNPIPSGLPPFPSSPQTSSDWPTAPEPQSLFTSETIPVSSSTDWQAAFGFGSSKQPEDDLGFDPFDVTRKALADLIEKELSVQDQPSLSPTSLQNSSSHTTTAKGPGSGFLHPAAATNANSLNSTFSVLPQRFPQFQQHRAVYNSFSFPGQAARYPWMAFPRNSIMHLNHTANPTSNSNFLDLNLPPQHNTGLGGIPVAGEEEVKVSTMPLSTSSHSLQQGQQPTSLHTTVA
UniProt P12109: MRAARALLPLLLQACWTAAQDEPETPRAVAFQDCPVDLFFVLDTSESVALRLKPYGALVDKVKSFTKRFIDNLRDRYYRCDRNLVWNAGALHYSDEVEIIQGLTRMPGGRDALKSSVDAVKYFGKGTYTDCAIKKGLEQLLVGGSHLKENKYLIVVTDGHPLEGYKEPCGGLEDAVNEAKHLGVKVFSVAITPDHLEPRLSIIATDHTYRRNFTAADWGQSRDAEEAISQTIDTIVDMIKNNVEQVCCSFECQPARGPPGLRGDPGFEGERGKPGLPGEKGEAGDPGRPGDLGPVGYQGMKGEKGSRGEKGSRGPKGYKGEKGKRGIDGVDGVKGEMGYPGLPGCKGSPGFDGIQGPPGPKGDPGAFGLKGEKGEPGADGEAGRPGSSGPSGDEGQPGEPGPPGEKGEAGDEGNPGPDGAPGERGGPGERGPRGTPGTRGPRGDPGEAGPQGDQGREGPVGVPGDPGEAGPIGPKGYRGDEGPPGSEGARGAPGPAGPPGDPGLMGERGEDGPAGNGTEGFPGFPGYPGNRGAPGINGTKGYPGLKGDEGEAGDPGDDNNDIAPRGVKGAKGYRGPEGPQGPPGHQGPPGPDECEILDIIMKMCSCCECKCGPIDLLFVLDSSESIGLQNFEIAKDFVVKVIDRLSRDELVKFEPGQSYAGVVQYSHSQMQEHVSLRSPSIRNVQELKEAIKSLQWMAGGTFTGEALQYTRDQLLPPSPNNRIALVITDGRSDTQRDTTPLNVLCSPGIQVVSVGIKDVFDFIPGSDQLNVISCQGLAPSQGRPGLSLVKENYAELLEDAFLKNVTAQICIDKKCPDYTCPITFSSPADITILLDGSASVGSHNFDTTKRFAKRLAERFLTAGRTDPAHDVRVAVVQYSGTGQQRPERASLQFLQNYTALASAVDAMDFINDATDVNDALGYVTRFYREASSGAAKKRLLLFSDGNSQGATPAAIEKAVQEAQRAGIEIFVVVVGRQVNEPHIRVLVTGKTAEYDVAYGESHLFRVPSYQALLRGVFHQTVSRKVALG

[2] = compound: Cc1nc(Nc2n[nH]c3c2CN(C(=O)N[C@H](CN(C)C)c2ccccc2)C3(C)C)c2sccc2n1
Method in brief: as §1

[3] = compound: Cc1nc(Nc2ncc(C(=O)Nc3c(C)cccc3Cl)s2)cc(N2CCN(CCO)CC2)n1 [dasatinib]
Method in brief: as §1

[4] = compound: Cc1ncc(-c2ccnc(Nc3ccc(S(C)(=O)=O)cc3)n2)n1C(C)C
Method in brief: as §1

[5] = compound: Cn1cc(-c2ccc3c(c2)CCN3C(=O)Cc2cccc(C(F)(F)F)c2)c2c(N)ncnc21
Method in brief: as §1

[6] = compound: Cn1cc(CNCC2CCN(c3ncc(C(=O)NO)cn3)CC2)c2ccccc21 [quisinostat]
Method in brief: as §1

[7] = compound: Cn1cncc1[C@@](N)(c1ccc(Cl)cc1)c1ccc2c(c1)c(-c1cccc(Cl)c1)cc(=O)n2C [tipifarnib]
Method in brief: as §1

[8] = compound: NC(=O)Nc1cc(-c2cccc(F)c2)sc1C(=O)N[C@H]1CCCNC1
Method in brief: as §1

[9] = compound: NC(=O)c1cnc(N[C@@H]2CCCC[C@@H]2N)nc1Nc1cccc(-n2nccn2)c1
Method in brief: as §1

[10] = compound: NC1(c2ccc(-c3nc4ccn5c(=O)[nH]nc5c4cc3-c3ccccc3)cc2)CCC1
Method in brief: as §1

[11] = compound: O=C(CCCCCCC(=O)Nc1ccccc1)NO [vorinostat]
Method in brief: as §1

[12] = compound: O=C(O)c1ccc2c(c1)nc(Nc1cccc(Cl)c1)c1ccncc12 [silmitasertib]
Method in brief: as §1

[13] = compound: O=C1NC(=O)C(c2cnc3ccccn23)=C1c1cn2c3c(cc(F)cc13)CN(C(=O)N1CCCCC1)CC2
Method in brief: as §1

[14] = compound: c1cn2cc(-c3ccc4cn[nH]c4c3)nc(Nc3ccc(N4CCOCC4)cc3)c2n1 [entospletinib]
Method in brief: as §1

[15] = compound: NCC(=O)Nc1ccc(-n2nc(C(F)(F)F)cc2-c2ccc3c(ccc4ccccc43)c2)cc1
Method in brief: as §1

Measured: log2 fold change

CPNE2 (UniProt Q96FN4)
inactive: [1] -0.125 | [2] 0.07 | [3] 0.237 | [4] -0.017 | [5] -0.058 | [6] -0.004 | [7] 0.054 | [8] 0.035 | [9] 0.008 | [10] -0.017 | [11] 0.043 | [12] -0.074 | [13] 0.099 | [14] 0.013

CRACR2B (UniProt Q8N4Y2)
inactive: [3] -0.059 | [5] 0.042 | [10] 0.015 | [11] -0.063 | [12] -0.176

COMMD6 isoform 2 (UniProt Q7Z4G1)
inactive: [1] 0.044 | [2] 0.057 | [3] 0.036 | [4] -0.059 | [5] 0.006 | [6] 0.048 | [7] 0.014 | [8] -0.008 | [9] -0.016 | [10] -0.015 | [11] -0.132 | [12] 0.123 | [13] -0.048 | [14] -0.072

CNNM2 (UniProt Q9H8M5)
inactive: [3] -0.021 | [5] -0.044 | [6] 0.217 | [8] -0.077 | [9] -0.001 | [10] -0.006 | [15] 0.001 | [11] 0.068 | [12] 0.065 | [13] 0.051 | [14] -0.073

COPS9 (UniProt Q8WXC6)
inactive: [9] -0.074 | [10] 0.214 | [11] 0.341 | [12] -0.139

CORO7 (UniProt P57737)
inactive: [1] -0.102 | [2] 0.136 | [3] 0.024 | [4] -0.072 | [5] 0.119 | [6] 0.171 | [7] -0.051 | [8] 0.088 | [10] 0.183 | [15] -0.053 | [11] -0.019 | [12] -0.017 | [13] 0.019 | [14] -0.045

CPEB4 (UniProt Q17RY0)
inactive: [1] -0.078 | [2] 0.101 | [3] -0.143 | [4] 0.057 | [5] -0.027 | [7] 0.018 | [9] 0.049 | [10] -0.061 | [15] 0.05 | [11] -0.269 | [12] 0.201 | [14] -0.034

COX7A2 (UniProt P14406)
inactive: [1] -0.039 | [2] 0.012 | [4] 0.103 | [6] -0.052 | [7] 0.026 | [8] -0.02 | [9] -0.024 | [10] -0.016 | [15] -0.035 | [11] 0.152 | [12] -0.014 | [13] 0.064 | [14] 0.009

COLEC11 isoform 10 (UniProt Q9BWP8)
inactive: [3] -0.009 | [5] 0.077 | [10] 0.032 | [15] -0.089 | [11] 0.121 | [12] 0.026 | [14] 0.01

COPS3 isoform 2 (UniProt Q9UNS2)
inactive: [1] 0.192 | [2] -0.027 | [4] 0.237 | [7] -0.003 | [9] 0.298 | [15] -0.123 | [14] 0.056

CPA4 (UniProt Q9UI42)
inactive: [6] 0.025 | [8] -0.067 | [9] -0.159 | [10] 0.014 | [11] 0.274 | [12] -0.36 | [13] 0.313

CPLANE2 (UniProt Q9BU20)
inactive: [6] -0.012 | [8] 0.094 | [10] 0.115 | [11] -0.037 | [12] -0.097 | [13] -0.045

COL6A3 (UniProt P12111)
inactive: [1] 0.05 | [2] 0.151 | [3] 0.032 | [4] 0.02 | [5] -0.055 | [6] 0.123 | [7] -0.009 | [8] 0 | [10] -0.155 | [11] 0.273 | [12] 0.002 | [13] -0.093

CNNM1 (UniProt Q9NRU3)
inactive: [1] 0.016 | [2] 0.03 | [3] -0.022 | [4] 0.006 | [5] 0.005 | [7] -0.031 | [10] -0.019 | [15] 0.113 | [11] 0.135 | [12] 0.069 | [14] -0.01

CPEB3 (UniProt Q8NE35)
inactive: [6] 0.002 | [8] -0.039 | [10] -0.106 | [11] -0.06 | [12] -0.101 | [13] 0.008

CORO6 isoform 5 (UniProt Q6QEF8)
inactive: [1] -0.01 | [2] 0.08 | [4] 0.087 | [6] -0.127 | [7] -0.003 | [8] 0.079 | [9] -0.012 | [13] -0.008

CNOT7 (UniProt H0YBT3)
inactive: [6] -0.31 | [8] -0.025 | [13] -0.048

COP1 (UniProt Q8NHY2)
inactive: [1] 0.123 | [2] 0.019 | [3] 0.017 | [4] 0.054 | [5] 0.019 | [6] -0.023 | [7] -0.114 | [8] 0.044 | [9] 0.027 | [10] 0.163 | [11] 0.012 | [12] 0.008 | [13] 0.029

Quoted from the results shown (2 entries):
CORO6 isoform 5 (UniProt Q6QEF8)
inactive: [1] -0.01 | [2] 0.08 | [4] 0.087 | [6] -0.127 | [7] -0.003 | [8] 0.079 | [9] -0.012 | [13] -0.008

CNOT7 (UniProt H0YBT3)
inactive: [6] -0.31 | [8] -0.025 | [13] -0.048

(listing goes on)

CNTN4 (UniProt Q8IWV2)
inactive: [1] 0.127 | [2] -0.06 | [4] 0.306 | [7] -0.006 | [8] 0.151 | [9] 0.072 | [10] -0.024 | [15] 0.173 | [11] -0.026 | [12] -0.09 | [13] 0.274 | [14] 0.06
active: [6] -0.561

COX14 (UniProt Q96I36)
inactive: [1] -0.01 | [2] -0.029 | [4] 0.01 | [6] -0.003 | [7] 0.043 | [8] 0.07 | [9] -0.101 | [10] 0.007 | [11] -0.185 | [12] -0.009 | [13] -0.053

CNTROB isoform 2 (UniProt Q8N137)
inactive: [3] 0.379 | [5] 0.311 | [10] -0.291 | [11] -0.012 | [12] 0.104

CPLX1 (UniProt O14810)
active: [3] 1.05
inactive: [5] -0.134 | [9] 0.178 | [15] 0 | [14] 0.119

CNK3/IPCEF1 isoform 2 (UniProt G9CGD6)
inactive: [3] -0.131 | [5] 0.002 | [10] 0.168 | [15] -0.02 | [11] -0.279 | [12] 0.06 | [14] 0.008

COL1A1 (UniProt P02452)
inactive: [10] -0.025 | [11] 1.5 | [12] -0.048

CNOT2 (UniProt F8VRS8)
inactive: [10] -0.122 | [11] -0.056 | [12] 0.152

COPS2 (UniProt P61201)
inactive: [1] -0.019 | [2] -0.002 | [3] 0.042 | [4] -0.038 | [5] 0.088 | [6] -0.206 | [7] -0.085 | [8] 0.011 | [9] 0.084 | [13] 0.034 | [14] 0.14

CNRIP1 (UniProt Q96F85)
inactive: [3] -0.026 | [5] -0.058 | [6] -0.292 | [8] 0.064 | [9] 0.083 | [10] -0.046 | [15] 0.166 | [11] -0.042 | [12] -0.002 | [13] 0.063

COQ3 (UniProt Q9NZJ6)
inactive: [1] -0.005 | [2] -0.021 | [4] 0.052 | [7] -0.013 | [9] -0.012 | [10] 0.078 | [15] -0.055 | [11] 0.19 | [12] 0.031 | [14] -0.013

COL25A1 (UniProt Q9BXS0)
inactive: [1] 0.125 | [2] 0.114 | [4] 0.119 | [7] -0.166 | [9] -0.056

COX10 (UniProt Q12887)
inactive: [3] -0.002 | [5] 0.019 | [6] 0.016 | [8] -0.149 | [13] -0.045 | [14] -0.049

COQ8B (UniProt Q96D53)
inactive: [1] -0.02 | [2] -0.209 | [4] -0.241 | [6] 0.036 | [7] -0.035 | [8] -0.004 | [10] 0.076 | [11] 0.141 | [12] -0.043 | [13] 0.123 | [14] -0.298

COL12A1 (UniProt Q99715)
inactive: [3] -0.097 | [5] 0.198 | [6] -0.056 | [8] 0.166 | [9] 0.827 | [10] -0.154 | [15] 0.29 | [11] 0.037 | [12] -0.079 | [13] 0.908 | [14] -0.036

COA5 (UniProt Q86WW8)
inactive: [3] 0.007 | [5] 0.01 | [6] 0.035 | [8] 0.025 | [10] 0.004 | [15] 0 | [11] -0.015 | [12] -0.065 | [13] 0.011 | [14] -0.013

COX17 (UniProt Q14061)
inactive: [1] -0.13 | [2] -0.272 | [4] -0.198 | [6] -0.224 | [7] -0.082 | [8] 0.053 | [9] -0.02 | [10] 0.028 | [11] 0.048 | [12] -0.004 | [13] 0.079

CPTP (UniProt Q5TA50)
inactive: [1] 0.062 | [2] -0.034 | [3] -0.08 | [4] -0.067 | [5] 0.304 | [6] -0.082 | [7] -0.084 | [8] 0.08 | [10] 0.006 | [15] 0.044 | [11] -0.225 | [12] -0.019 | [13] 0 | [14] -0.106

CNEP1R1 isoform 2 (UniProt Q8N9A8)
inactive: [1] -0.178 | [2] 0.16 | [4] -0.096 | [7] -0.017

COMMD3-BMI1 (UniProt R4GMX3)
inactive: [1] 0.034 | [2] 0.028 | [3] -0.047 | [4] 0.07 | [5] 0.095 | [6] -0.001 | [7] -0.04 | [8] -0.009 | [9] 0.043 | [10] 0.151 | [11] -0.171 | [12] -0.095 | [13] 0.026 | [14] -0.005

CNOT4 isoform 9 (UniProt O95628)
inactive: [3] -0.062 | [5] -0.052 | [6] 0.17 | [8] -0.058 | [9] 0.081 | [10] -0.024 | [15] 0.036 | [11] 0.098 | [12] 0.044 | [13] -0.031 | [14] 0.009

COL6A1 (UniProt P12109)
inactive: [1] -0.219 | [2] -0.326 | [4] 0.029 | [7] 0.054
